Measurements from PMC7279388.
Read-outs that look alike come from different tables or passages of the source. Results are given in words; binding and its absence hold for the method and conditions named. Binding seen in cells or lysates may run through a third protein. Some entries that bind do so weakly or less than the wild type.

By UniProt entry, the sequences of proteins in these tests, tags left out.
UniProt O14744: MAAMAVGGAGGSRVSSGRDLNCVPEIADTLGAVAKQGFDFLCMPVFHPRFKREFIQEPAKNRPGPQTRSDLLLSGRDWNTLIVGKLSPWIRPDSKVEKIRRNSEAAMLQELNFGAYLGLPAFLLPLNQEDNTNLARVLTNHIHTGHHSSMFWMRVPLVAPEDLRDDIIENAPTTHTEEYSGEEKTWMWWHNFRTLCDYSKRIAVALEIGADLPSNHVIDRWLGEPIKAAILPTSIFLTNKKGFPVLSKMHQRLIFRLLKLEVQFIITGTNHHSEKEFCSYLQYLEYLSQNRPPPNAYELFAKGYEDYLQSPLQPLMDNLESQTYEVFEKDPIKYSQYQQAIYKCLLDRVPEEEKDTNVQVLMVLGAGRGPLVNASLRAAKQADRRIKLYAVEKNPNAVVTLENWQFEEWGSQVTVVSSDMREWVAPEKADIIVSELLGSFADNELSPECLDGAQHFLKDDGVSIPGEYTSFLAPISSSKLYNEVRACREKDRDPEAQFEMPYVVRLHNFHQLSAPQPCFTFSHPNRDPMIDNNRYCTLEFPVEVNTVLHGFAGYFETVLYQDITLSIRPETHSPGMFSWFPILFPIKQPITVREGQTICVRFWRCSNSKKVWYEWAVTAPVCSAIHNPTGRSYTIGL
UniProt Q04206: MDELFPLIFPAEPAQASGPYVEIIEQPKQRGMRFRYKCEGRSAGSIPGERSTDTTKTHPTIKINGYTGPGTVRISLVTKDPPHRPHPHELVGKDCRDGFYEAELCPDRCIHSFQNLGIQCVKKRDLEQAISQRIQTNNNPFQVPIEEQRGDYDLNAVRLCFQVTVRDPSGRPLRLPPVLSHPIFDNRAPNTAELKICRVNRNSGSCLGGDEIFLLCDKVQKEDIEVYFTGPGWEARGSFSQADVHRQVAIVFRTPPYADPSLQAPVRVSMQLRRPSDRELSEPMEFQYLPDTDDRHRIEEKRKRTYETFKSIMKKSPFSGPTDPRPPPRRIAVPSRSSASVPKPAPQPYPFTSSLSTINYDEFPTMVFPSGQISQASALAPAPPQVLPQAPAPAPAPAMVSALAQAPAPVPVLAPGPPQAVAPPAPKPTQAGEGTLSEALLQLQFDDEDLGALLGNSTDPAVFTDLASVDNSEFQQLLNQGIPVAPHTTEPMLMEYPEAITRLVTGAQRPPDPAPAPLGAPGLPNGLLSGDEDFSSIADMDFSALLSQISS

Key:
[1] = target: FLAG-WT-PRMT5 (protein arginine methyltransferase 5, wild type) (human) (UniProt O14744); assay: co-IP; FLAG-PRMT5 proteins immunoprecipitated with anti-FLAG-M2 beads from lysates of stable HEK293 and HT29 cells, treated or not with 10 ng/mL IL-1β for 1 h; 1% Triton X-100, 50 mM Tris-HCl pH 7.4, 150 mM NaCl, 1 mM EDTA; 4 °C overnight; Western blot of the partner
[2] = target: FLAG-WT-PRMT5 (protein arginine methyltransferase 5, wild type) (human) (UniProt O14744); assay: as above; remark: listed apart in the source

“p65 subunit of NF-κB (RelA) (from UniProt Q04206 1-551)” was tested, and the binding [1] was “binds”.

B1: PKCι (enzyme, UniProt P41743 1-596)
chain: MPTQRDSSTMSHTVAGGGSGDHSHQVRVKAYYRGDIMITHFEPSISFEGLCNEVRDMCSFDNEQLFTMKWIDEEGDPCTVSSQLELEEAFRLYELNKDSELLIHVFPCVPERPGMPCPGEDKSIYRRGARRWRKLYCANGHTFQAKRFNRRAHCAICTDRIWGLGRQGYKCINCKLLVHKKCHKLVTIECGRHSLPQEPVMPMDQSSMHSDHAQTVIPYNPSSHESLDQVGEEKEAMNTRESGKASSSLGLQDFDLLRVIGRGSYAKVLLVRLKKTDRIYAMKVVKKELVNDDEDIDWVQTEKHVFEQASNHPFLVGLHSCFQTESRLFFVIEYVNGGDLMFHMQRQRKLPEEHARFYSAEISLALNYLHERGIIYRDLKLDNVLLDSEGHIKLTDYGMCKEGLRPGDTTSTFCGTPNYIAPEILRGEDYGFSVDWWALGVLMFEMMAGRSPFDIVGSSDNPDQNTEDYLFQVILEKQIRIPRSLSVKAASVLKSFLNKDPKERLGCHPQTGFADIQGHPFFRNVDWDMMEQKQVVPPFKPNISGEFGLDNFDSQFTNEPVQLTPDDDDIVRKIDQSEFEGFEYINPLLMSAEECV
In the case of B1, the binding [2] is reported as “binds”.
